Laboratory results reported in patent US9388313B2, “Water-insoluble coloring compound, ink, thermal transfer recording sheet, and color filter resist composition” (CANON KABUSHIKI KAISHA, priority 2012, dated 2016).

Assays:
[1] = Saturation C* of bar-coated ink image sample; conditions: ink of the compound, bar coating (Bar No. 10)
Procedure: (§1) Inks (1), (4), (11), (18), (23), (26), and (28) and Comparative Inks (1) and (2) were each applied onto paper for contrast ratio measurement by bar coating (Bar No. 10) and were air-dried overnight to produce image samples. Chromaticity values (L*, a*, b*) in the L*a*b* color system of each image sample were measured with a reflection densitometer SpectroLino (manufactured by Gretag Macbeth AG). The saturation (C*) was calculated based on the measured color characteristic values by the following expression: C*=√{square root over ((a*)^2+(b*)^2)} [Math. 1]
Saturation was evaluated based on the saturation C* at the time at which the image sample was produced by the bar coating (Bar No. 10). The saturation C* was calculated by the above-mentioned expression.

[2] = Chromaticity (L*a*b*) and color tone of bar-coated ink image sample; set-up: key to color tone evaluation at L* = 92: A: a* is less than −5.0 and b* is 100.0 or more; B: a* is −5.0 or more and b* is 100.0 or more; C: b is less than 100.0; conditions: ink of the compound, bar coating on paper
Procedure: as §1
It is recognized that a larger increase of the chromaticity in the green gamut at a constant value L* is useful for increasing the green gamut. In this Example, the color tone was evaluated based on the values of a* and b* at an L* of 92 as follows:
A: a* is less than −5.0 and b* is 100.0 or more,
B: a* is −5.0 or more and b* is 100.0 or more, and […]

SMILES	C* in bar coating (No. 10) [1]	Saturation evaluation [1]	a* at L* = 92 [2]	b* at L* = 92 [2]	color tone evaluation at L* = 92 [2]
CCCCC(CC)CN(CC(CC)CCCC)C(=O)c1ccccc1/N=N/c1c(O)[nH]c(=O)c(C(=O)OCC)c1C (stereo not drawn) [Compound 1]	110.7	B (108.0<C*≦112.0)	−11.3	110.1	A
CCCCC(CC)CN(CC(CC)CCCC)S(=O)(=O)c1ccccc1/N=N/c1c(O)[nH]c(=O)c(C(=O)OCC)c1C (stereo not drawn) [Compound 4]	113.3	A (112.0<C*)	−10.3	112.8	A
CCCCC(CC)CN(CC(CC)CCCC)S(=O)(=O)c1ccc(/N=N/c2c(O)[nH]c(=O)c(C#N)c2C)cc1 (stereo not drawn) [compound 1, reference compound]	105.4	C (C*<108.0)	−2.6	105.4	B
CCCCC(CC)CN(CC(CC)CCCC)C(=O)c1ccccc1/N=N/c1c(O)[nH]c(=O)c(C(=O)NC(C)(C)C)c1C (stereo not drawn) [Compound 23]	115.5	A (112.0<C*)	−9.0	115.2	A
CCCCCc1c(/N=N/c2ccccc2C(=O)N(CC(CC)CCCC)CC(CC)CCCC)c(O)[nH]c(=O)c1C(=O)N1CCCCC1 (stereo not drawn) [Compound 26]	108.2	B (108.0<C*≦112.0)	−12.4	107.5	A
CCCCC(CC)CN(CC(CC)CCCC)C(=O)c1ccc(/N=N/c2c(O)[nH]c(=O)c(C#N)c2C)cc1 (stereo not drawn) [compound 2, reference compound]	90.4	C (C*<108.0)	−7.2	90.1	C (b is less than 100.0)
CCOC(=O)c1c(C)c(/N=N/c2ccccc2C(=O)N(C2CCCCC2)C2CCCCC2)c(O)[nH]c1=O [Compound 28]	108.4	B (108.0<C*≦112.0)	−9.1	108.0	A
CCCCC(CC)CN(CC(CC)CCCC)C(=O)c1cccc(/N=N/c2c(O)[nH]c(=O)c(C(=O)OCC)c2C)c1 (stereo not drawn) [Compound 11]	110.3	B (108.0<C*≦112.0)	−11.3	109.8	A
CCCCC(CC)CN(CC(CC)CCCC)C(=O)c1ccc(/N=N/c2c(O)[nH]c(=O)c(C(=O)OCC)c2C)cc1 (stereo not drawn) [Compound 18]	117.7	A (112.0<C*)	−8.2	117.4	A
